Results taken from patent US9662329B2, “Use of survivin antagonists in polyomavirus-related disease” (University of Pittsburgh—Of the Commonwealth System of …, priority 2012, dated 2017).

Tested on: MKL-1 cells
Assay: MKL-1 cytotoxicity screen (Cell Titer Glo)
Assay type: cell-based, human
Conditions: screened at 10^-5 M; 48 hours; cut-off <10% cell survival

CC(C)n1nc(-c2cc3cc(O)ccc3[nH]2)c2c(N)ncnc21 [PP242]
activity in screen (>90% inhibition of MKL-1 cell growth): not active
